Assay results reported in the supplement of paper PMC11732987, “Enantioselective OTUD7B fragment discovery through chemoproteomics screening and high-throughput optimisation” (Communications Chemistry, 2025).
Some of the results follow. The data scatter; read single values as rough.

Chains of the proteins cited; added tags and fusions are not shown. Lines headed by an entry give the natural chain unless they say otherwise; changes in a name come on top.
UniProt P36871: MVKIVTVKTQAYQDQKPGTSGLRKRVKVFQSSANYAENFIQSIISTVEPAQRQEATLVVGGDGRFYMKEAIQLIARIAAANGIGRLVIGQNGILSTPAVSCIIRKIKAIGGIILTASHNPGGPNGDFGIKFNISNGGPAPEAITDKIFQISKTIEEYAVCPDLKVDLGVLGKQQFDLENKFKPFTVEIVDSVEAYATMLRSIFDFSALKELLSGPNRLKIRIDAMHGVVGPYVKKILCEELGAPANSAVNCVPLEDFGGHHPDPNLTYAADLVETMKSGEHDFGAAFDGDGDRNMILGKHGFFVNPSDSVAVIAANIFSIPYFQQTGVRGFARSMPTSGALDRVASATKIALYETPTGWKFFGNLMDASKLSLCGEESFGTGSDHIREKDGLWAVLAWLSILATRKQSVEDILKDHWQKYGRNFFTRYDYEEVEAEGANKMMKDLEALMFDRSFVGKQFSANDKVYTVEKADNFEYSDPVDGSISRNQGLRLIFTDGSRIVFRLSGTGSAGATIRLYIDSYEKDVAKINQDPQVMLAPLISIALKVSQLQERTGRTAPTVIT
UniProt Q8WX93: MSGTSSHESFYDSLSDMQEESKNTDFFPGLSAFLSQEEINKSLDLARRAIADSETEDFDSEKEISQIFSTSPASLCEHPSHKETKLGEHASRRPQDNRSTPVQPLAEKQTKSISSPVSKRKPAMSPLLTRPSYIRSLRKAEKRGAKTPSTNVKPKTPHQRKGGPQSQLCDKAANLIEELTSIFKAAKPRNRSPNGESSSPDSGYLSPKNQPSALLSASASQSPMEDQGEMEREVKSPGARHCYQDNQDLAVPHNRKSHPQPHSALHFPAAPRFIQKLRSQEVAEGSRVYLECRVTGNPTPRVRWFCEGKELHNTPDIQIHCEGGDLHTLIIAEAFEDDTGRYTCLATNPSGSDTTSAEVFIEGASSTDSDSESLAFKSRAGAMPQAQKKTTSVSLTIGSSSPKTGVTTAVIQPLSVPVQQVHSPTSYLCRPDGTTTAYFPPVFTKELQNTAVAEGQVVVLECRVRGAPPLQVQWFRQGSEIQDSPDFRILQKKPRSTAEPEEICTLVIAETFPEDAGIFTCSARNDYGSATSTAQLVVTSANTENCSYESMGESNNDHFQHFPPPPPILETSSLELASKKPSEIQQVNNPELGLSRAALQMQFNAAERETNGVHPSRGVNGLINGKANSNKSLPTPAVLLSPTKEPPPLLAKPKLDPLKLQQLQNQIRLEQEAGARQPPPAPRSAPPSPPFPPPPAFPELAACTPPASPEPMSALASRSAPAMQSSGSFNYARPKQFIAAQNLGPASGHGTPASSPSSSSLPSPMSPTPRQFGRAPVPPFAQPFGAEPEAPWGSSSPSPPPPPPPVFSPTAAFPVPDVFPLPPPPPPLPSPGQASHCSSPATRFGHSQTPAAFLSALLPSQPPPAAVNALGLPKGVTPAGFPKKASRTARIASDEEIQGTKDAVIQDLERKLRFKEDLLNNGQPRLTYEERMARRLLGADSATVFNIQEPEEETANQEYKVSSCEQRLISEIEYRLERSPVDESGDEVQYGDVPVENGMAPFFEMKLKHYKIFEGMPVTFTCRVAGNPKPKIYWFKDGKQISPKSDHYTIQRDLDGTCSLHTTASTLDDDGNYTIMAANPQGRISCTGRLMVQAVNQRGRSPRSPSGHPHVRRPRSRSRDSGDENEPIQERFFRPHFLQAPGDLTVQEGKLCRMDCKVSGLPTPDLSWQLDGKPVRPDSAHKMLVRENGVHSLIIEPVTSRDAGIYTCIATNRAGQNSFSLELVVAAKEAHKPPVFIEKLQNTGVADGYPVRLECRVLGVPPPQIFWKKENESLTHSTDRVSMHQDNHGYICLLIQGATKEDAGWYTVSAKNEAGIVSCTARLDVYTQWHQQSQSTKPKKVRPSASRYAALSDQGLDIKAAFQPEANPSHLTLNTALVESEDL
UniProt Q9Y5B6: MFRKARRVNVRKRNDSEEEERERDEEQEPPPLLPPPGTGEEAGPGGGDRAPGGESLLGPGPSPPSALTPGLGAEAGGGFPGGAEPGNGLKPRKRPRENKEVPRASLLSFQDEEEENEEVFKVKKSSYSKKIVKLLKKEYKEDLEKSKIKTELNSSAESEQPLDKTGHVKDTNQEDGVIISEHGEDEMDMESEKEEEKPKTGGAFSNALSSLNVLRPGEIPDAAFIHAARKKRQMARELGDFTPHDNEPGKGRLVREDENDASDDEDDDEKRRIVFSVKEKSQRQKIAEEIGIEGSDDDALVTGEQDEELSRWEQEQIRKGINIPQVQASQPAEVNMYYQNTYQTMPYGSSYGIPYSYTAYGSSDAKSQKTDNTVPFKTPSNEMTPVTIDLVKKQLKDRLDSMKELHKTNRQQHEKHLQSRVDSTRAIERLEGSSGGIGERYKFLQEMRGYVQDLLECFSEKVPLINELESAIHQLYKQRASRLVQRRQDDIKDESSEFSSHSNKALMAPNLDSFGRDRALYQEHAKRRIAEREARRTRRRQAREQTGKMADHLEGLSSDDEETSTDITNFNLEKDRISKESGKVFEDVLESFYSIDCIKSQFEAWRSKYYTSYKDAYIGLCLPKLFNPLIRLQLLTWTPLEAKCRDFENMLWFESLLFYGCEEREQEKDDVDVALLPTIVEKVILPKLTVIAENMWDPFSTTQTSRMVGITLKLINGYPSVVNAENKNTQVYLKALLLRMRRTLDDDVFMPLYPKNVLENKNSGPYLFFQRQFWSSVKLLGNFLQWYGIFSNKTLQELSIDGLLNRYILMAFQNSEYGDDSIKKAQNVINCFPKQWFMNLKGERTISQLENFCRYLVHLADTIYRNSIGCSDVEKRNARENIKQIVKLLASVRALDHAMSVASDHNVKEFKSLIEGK

Assays:
[1] = compound: ClCC(=O)N[C@@H]1CCCc2ccccc12; assay: log2 mean competition ratio of IA-DTB cysteine labelling (DMSO/compound) (log2 ratio); higher = stronger cysteine engagement by compound; details: treatment time: 4 h, cell line lysate: HEK293T
Method: (§1)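 IA-DTB competitive cysteine chemoproteomics in HEK293T RIPA lysate. Lysates were treated with compound 29 or 30 at 50 or 200 µM for 4 h, then IA-DTB (500 µM, 1 h), trypsin-digested, NeutrAvidin-enriched and analysed by diaPASEF. Competition ratio = intensity DMSO / intensity compound (n=4 treated, n=64 DMSO); binding: mean log2 CR ≥ 1 and p ≤ 0.05 plus QC filters. Target is the cysteine site.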

[2] = compound: ClCC(=O)N[C@H]1CCCc2ccccc12; assay: as above; details: treatment time: 4 h, cell line lysate: HEK293T
Method: as §1

Row | Target | log2 mean competition ratio ([1]; 50 µM) | log2 mean competition ratio ([1]; 200 µM) | log2 mean competition ratio ([2]; 50 µM) | log2 mean competition ratio ([2]; 200 µM)
1 | PGM1 C374 (UniProt P36871) | -0.15 | -0.0719 | -0.459 | -0.269
2 | PALS2 C298 | 0.0605 | 0.0681 | 0.433 | 0.231
3 | PALLD C964 (UniProt Q8WX93) | -0.121 | 0.0558 | -0.132 | 0.133
4 | PABIR1 C206 | 0.128 | 0.052 | 0.0955 | 0.191
5 | PAXBP1 C870 (UniProt Q9Y5B6) | -0.171 | -0.14 | 0.00427 | -0.00275
